Results from patent US9382257B2, “Substituted pyrrolo[2,3-b]pyrazines as serine/threonine kinase inhibitors” (Genentech, Inc., priority 2002, dated 2016).
Structures were worked out from names or drawings and are uncertain.

The chains behind the UniProt entries cited, without tags or fusion partners. Residues count along the entry.
UniProt P28482, 8-360 limits assumed: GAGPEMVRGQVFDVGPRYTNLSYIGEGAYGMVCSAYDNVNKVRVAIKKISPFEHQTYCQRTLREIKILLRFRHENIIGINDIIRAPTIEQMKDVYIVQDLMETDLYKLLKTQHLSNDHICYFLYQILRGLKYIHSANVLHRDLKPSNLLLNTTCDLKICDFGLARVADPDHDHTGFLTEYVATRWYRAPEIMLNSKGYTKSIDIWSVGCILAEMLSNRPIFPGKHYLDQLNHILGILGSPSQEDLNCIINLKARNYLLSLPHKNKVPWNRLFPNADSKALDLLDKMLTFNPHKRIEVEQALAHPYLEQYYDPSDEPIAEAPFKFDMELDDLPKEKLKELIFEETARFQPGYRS

Legend:
[1] = test system: PMA-stimulated P90RSK(Ser380) phosphorylation in HepG2 cells; experiment: Cellular P90RSK(Ser380) Phosphorylation Assay (Example 4); settings: read-out: RSK Inhibition IC50, 1.5 hour compound incubation, PMA 100 ng/mL, normalized to GAPDH
Description: Cellular P90RSK(Ser380) Phosphorylation Assay
Inhibition of PMA-stimulated P90RSK(Ser380) phosphorylation was determined by the following in vitro cellular mechanistic assay, which comprises incubating cells with a compound for 1.5 hours and quantifying fluorescent pP90RSK(Ser380) signal on fixed cells and normalizing to GAPDH signal.
Materials and Methods: HepG2 cells were obtained from ATCC and grown in DMEM supplemented with 10% fetal bovine serum. Cells were plated in 96-well plates at 35,000 cells/well and allowed to attach overnight at 37° C./5% CO2. Diluted compounds were then added at a final concentration of 0.5% DMSO. After 1.5 hour compound incubation, cells were stimulated with the addition of PMA (phorbol 12-myristate 13-acetate) at a final concentration of 100 ng/mL; the PMA stimulation was a 30-minute incubation at 37° C./5% CO2. After the 30-minute PMA stimulation, cells were washed with PBS and fixed in 3.7% formaldehyde in PBS at room temperature for 15-20 minutes. This was followed by another wash in PBS and then permeabilization in 100% MeOH at room temperature for 10-15 minutes. […] Cells were then washed and analyzed for fluorescence at both wavelengths using the Odyssey Infrared Imaging System (LI-COR Biosciences). […]

[2] = target: human ERK-2 (Mitogen Activated Kinase 1) (Homo sapiens, UniProt P28482); experiment: ERK-2 Enzymatic Assay (Example 2); settings: read-out: ERK Inhibition IC50, Omnia peptide S/T17, 25 μM ATP

- IC50 [2]: 17.9 nM
SMILES: Cc1[nH]ncc1-c1cnc2[nH]cc(-c3cnn(Cc4ccc(OC(F)(F)F)cc4)c3)c2n1
- IC50 [1]: 99.4 nM
